Changes are numbered by the printed parent chain. Results are given in words; binding and its absence hold for the method and conditions named.
Biological target: Isolated ZIKV E domain III (303-404) (Zika virus strain PRVABC59)
Test: ELISA on isolated ZIKV E DIII

B1: MZ1 (antibody, V domains shown)
VH: QVQLQESGPGLVKSSETLSLSCTVSGASISNFYWSWVRQPPGKGLEWMGSIYYTGTITYNPSLKSRLTMSVDTSKNQFSLKLNSVTAADTAVYSCAGLDRFNWNDEGDCWGQGTLVTVFS
VL: QSVLTQPPSASGTPGQRVTISCSGSRSNLGRNTVNWYQQLPGVAPKLLIYSNNRRPSGVPDRFSGSKSDTSASLAISGLQSEDEADYFCAAWDDSLNGLYVFGTGTKVTVLG
With B1 the binding was “no binding (tested: titrated from 20 µg/ml)”.

B2: MZ24 (antibody, V domains shown)
VH: B1 VH with N31S, F32Y, P40S, I57T, M69I
VL: B1 VL with N53S, F88Y, K107S
For B2, the binding was “no binding (tested: titrated from 20 µg/ml)”.
